Changes are numbered by the printed parent chain. These are yes or no findings as the source states them, for the method shown. Some entries that bind do so weakly or less than the wild type.
How the values were obtained:
[1] = target: human renalase-1 (human) (UniProt Q5VYX0); experiment: hybridoma screening on peptide and whole renalase; Biacore
[2] = target: human renalase-1 (human) (UniProt Q5VYX0); experiment: immunofluorescence on a tissue microarray of normal human pancreas and ductal carcinoma, RNLS channel quantified with AQUAnalysis; target is endogenous tissue RNLS, isoform not specified
[3] = target: human renalase-1 (human) (UniProt Q5VYX0); experiment: immunohistochemistry (DAB, hematoxylin counterstain) on sections of normal human pancreas and pancreatic ductal adenocarcinoma Grades I-IV; target is endogenous tissue RNLS, isoform not specified
[4] = target: human renalase-2 (human) (UniProt Q5VYX0); experiment: hybridoma screening on peptide and whole renalase

The chains behind the UniProt entries cited, without tags or fusion partners. Where a name states a change or a piece, a line headed by the entry shows the natural chain unless it says otherwise.
UniProt Q5VYX0: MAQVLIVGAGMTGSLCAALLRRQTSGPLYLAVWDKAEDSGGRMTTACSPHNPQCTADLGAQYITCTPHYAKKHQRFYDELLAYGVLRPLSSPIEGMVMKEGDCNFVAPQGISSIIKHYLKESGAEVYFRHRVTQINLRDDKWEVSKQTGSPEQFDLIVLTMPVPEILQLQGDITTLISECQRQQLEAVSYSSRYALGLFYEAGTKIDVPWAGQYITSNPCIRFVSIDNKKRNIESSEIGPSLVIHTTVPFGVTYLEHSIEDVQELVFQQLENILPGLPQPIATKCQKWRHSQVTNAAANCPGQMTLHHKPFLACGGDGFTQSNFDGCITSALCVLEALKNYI

B1: monoclonal antibody 1D-28-4 (antibody, V domains shown)
VH: QSVEESGGRLVTPGTPLTLTCTVSGFSLSSFAVGWVRQAPGKGLEYIGIISSVGITRYASWAAGRFTISKTSTTVDLKITSPTTEDTATYFCARYGYSGDVNRLDLWGQGTLVTVSS
VL: AQVLTQTASPVSAAVGGTVTINCQASQSVYDNNNLAWYQQKPGQPPKQLIYGASTLASGVSSRFKGSGSGTQFTLTISGVQCDDAATYYCLGEFSCSSADCFAFGGGTEVVVKG
B1 was tested, and the binding [1] was “binds”, the binding [2] was “binds” and the binding [3] was “binds”.

B2: monoclonal antibody 1D-37-10 (antibody, V domains shown)
VH: QSVEESGGRLVTPGGSLTLTCTVSGFSLSDYAIIWVRQAPGKGLEYIAIIGSSGDTFYATWAKGRFTISKTSTTVDLKMTSLTAADTATYFCAPRYAGTTDYHDAFDPWGPGTLVTVSS
VL: EVVMTQTPASMEAPMGGTVTIKCQASQNIYNYLSWYQQKPGQPPKLLVYKASTLTSGVPSRFKGSGSGTQFTLTISDLECADAATYYCQINYSIYNHYNIIFGGGTEVVVKG
With B2 the binding [1] was “binds”.

B3: monoclonal antibody 1F-26-1 (antibody, V domains shown)
VH: QSVKESEGGLFKPTDTLTLTCTVSGFSLSSYGVTWVRQAPGNGLEWIGLIGDRGTTFYASWAKSRSTITRNTNLNTVTLKMTRLTAADTATYFCARGSGYGARIWGPGTLVTVSS
VL: AQVLTQTPSPVSAAVGGTVTINCQSSQSVYKNNYLAWYQQKPGQPPKLLIYETSKLASGVPPRFSGSGSGTQFTLTISSVQCDDAATYYCQGGYSGVDFMAFGGGTEVVVKG
For B3, the binding [1] was “binds”.

B4: monoclonal antibody 1F-42-7 (antibody, V domains shown)
VH: B3 VH with S29T, S30T, F57Y, A62V, K63N, S64G, S114A
VL: B3 VL with V11M, V15L, S28T, K31N, A36S, A57S
With B4 the binding [1] was “binds”.

B5: monoclonal antibody 3A-5-2 (antibody, V domains shown)
VH: QSLEESGGRLVTPGTPLTLTCTVSGFSLNNYHIYWVRQAPGKGLEYIGIIFNGGTYYARWTKGRFTISKTSTTVDLKMTSLTTEDTATYFCARGDGIWGPGTLVTVSL
VL: AQVLTQTPASVSAAVGGTVTINCQASQSVFNNNYLAWYQQKPGQPPKRLIYSASTLASGVSSRFKGSGSGTEFTLTMSGVECDDAATYYCAGSFDCNSGDCVAFGGGTEVVVKG
In the case of B5, the binding [4] is reported as “binds”.

Source: patent US20210024652A1
